Reference: PubChem BioAssay AID1159584 (Peter MacCallum Cancer Centre, 2016)
Shown is a random part of about 18,000 deposited reagents. Further read-outs or replicates are left out here. Not stated in the record: the amount of reagent, the time to read-out.

Assay: 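Genes that CDH1-null MCF10A cells selectively depend on to survive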 (primary screen)
Cell system: human MCF10A breast epithelial cells, parental and CDH1-null
Reagent: siRNA against human genes
Measured: 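ATP luminescence (CellTiter-Glo) viability per line relative to mean mock wells over all plates, and the ratio of CDH1-null to parental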
Scale: CDH1-null / parental viability ratio: higher = CDH1-null cells survive relatively better than parental; CDH1-null viability vs mock: higher = more viable CDH1-null cells
Units: CDH1-null viability vs mock in fraction of mock

{"Gene": "RAB27A", "CDH1-null / parental viability ratio": 0.88, "CDH1-null viability vs mock": 0.97}
{"Gene": "PPP1R9B", "CDH1-null / parental viability ratio": 1.27, "CDH1-null viability vs mock": 0.56}
{"Gene": "EPHB2", "CDH1-null / parental viability ratio": 1.03, "CDH1-null viability vs mock": 1.08}
{"Gene": "HIC2", "CDH1-null / parental viability ratio": 1.15, "CDH1-null viability vs mock": 0.94}
{"Gene": "TOR3A", "CDH1-null / parental viability ratio": 0.95, "CDH1-null viability vs mock": 0.82}
{"Gene": "KRTAP21-1", "CDH1-null / parental viability ratio": 1.2, "CDH1-null viability vs mock": 0.77}
{"Gene": "ERICH5", "CDH1-null / parental viability ratio": 0.96, "CDH1-null viability vs mock": 0.7}
{"Gene": "SPRY1", "CDH1-null / parental viability ratio": 0.74, "CDH1-null viability vs mock": 0.56}
{"Gene": "SBDS", "CDH1-null / parental viability ratio": 1.14, "CDH1-null viability vs mock": 0.98}
{"Gene": "HES5", "CDH1-null / parental viability ratio": 1.21, "CDH1-null viability vs mock": 0.94}
{"Gene": "SMARCD2", "CDH1-null / parental viability ratio": 1.54, "CDH1-null viability vs mock": 1.08}
{"Gene": "FDXR", "CDH1-null / parental viability ratio": 1.08, "CDH1-null viability vs mock": 1.14}
{"Gene": "ELAVL2", "CDH1-null / parental viability ratio": 1.21, "CDH1-null viability vs mock": 1.09}
{"Gene": "LRRC49", "CDH1-null / parental viability ratio": 0.77, "CDH1-null viability vs mock": 0.8}
